Patent publication US5432165A, “Methods for the treatment of infection caused by Hepatitis B virus (HBV)” (priority 1992, dated 1995)
This continues a long series; more values of the same kind are listed elsewhere.

System: hepatitis B virus
Assay: Oral FIAU in immune-competent patients with chronic hepatitis B: HBV DNA and HBV DNA polymerase
Type: in vivo, human
Details: 0.25 mpk, individual patients 1B-6B
Method: To assess the antiviral activity of FIAU against hepatitis B virus, up to 24 patients with chronic hepatitis B will be treated with oral FIAU in doses of 0.05, 0.10, 0.25 or 0.50 mg/kg-day in three divided doses daily for four weeks. Six patients, of which only three can be previous interferon failures, will be initially dosed at 0.10 mg/kg-day. Depending on tolerance and efficacy, the next six patients will be entered at 0.05 or 0.25 mg/kg-day.
This study is an open and uncontrolled evaluation of oral FIAU in the treatment of chronic hepatitis B. Up to four dose cohorts of six patients each will be sequentially studied starting at 0.10 mg/kg-day. Patients will take the medication three times per day for four weeks. Depending on efficacy and tolerance, the next dose cohort will be either 0.05 or 0.25 mg/kg-day.
Patients who meet the eligibility criteria will start on therapy, generally as outpatients one to two weeks after the in-hospital evaluation. Up to four doses will be sequentially evaluated. The initial six patients will receive 0.10 mg/kg-day for four weeks. […]
The FIAU will be administered by mouth in three equally divided doses daily. […] Dosing compliance will be monitored by measuring the residual FIAU solution returned at the weekly outpatient visit.
Activity of FIAU against hepatitis B virus will be assessed by monitoring levels of HBV DNA. […]

O=c1[nH]c(=O)n([C@@H]2O[C@H](CO)[C@@H](O)[C@@H]2F)cc1I [FIAU, 1-(2'-deoxy-2'-fluoro-β-D-arabinofuranosyl)-5-iodouracil]
HBV DNA (Month 1 (follow-up)): 116.6 pg/mL
HBV DNA (Week 5 (after 4-week treatment)): 96.3 pg/mL
